Like-named read-outs stand apart in the source and are kept apart here.
Legend:
[1] = Example 1: measurement of formaldehyde vapor pressure (HCHO concentration)
[2] = Example 6: vapor pressure of formaldehyde, image stabilizer in conditioning bath
[3] = Example 2: yellow stain at the minimum density portion; settings: formaldehyde 4.0 mmol, 2 weeks 60° C., 70% RH
[4] = formaldehyde 4.0 mmol
[5] = no formula (I) or (II) additive

Cc1ccn(CN(CCO)CCO)n1 [Compound A-11]
HCHO Concentration ([1]; 5 mmol/l): 0.20 ppm | Concentration of HCHO ([2]; 3 mmol/l in conditioning bath): 0.12 ppm

OCCN1CCN(Cn2cccn2)CC1 [Compound A-32]
Concentration of HCHO ([2]; 3 mmol/l in conditioning bath): 0.08 ppm

C1N2CN3CN1CN(C2)C3 [Hexamethylenetetramine, reference compound]
HCHO Concentration ([1]; 5 mmol/l): less than 0.03 ppm | HCHO Concentration ([1]; 27 mmol/l): 0.07 ppm | Concentration of HCHO ([2]; 3 mmol/l in conditioning bath): less than 0.03 ppm | Concentration of HCHO ([2]; 13 mmol/l in conditioning bath): 0.07 ppm

C1COCCN1 [II-21]
Yellow Stain ([3]; formula (II) 4 mmol): 0.09 | Concentration of HCHO ([4]; formula (II) 4 mmol): 0.2 ppm

c1cnn(CN2CCCCC2)c1 [Compound A-17]
HCHO Concentration ([1]; 5 mmol/l): 0.18 ppm

OCN1CCN(Cn2cncn2)CC1 [Compound A-45]
HCHO Concentration ([1]; 5 mmol/l): 0.18 ppm | Concentration of HCHO ([2]; 3 mmol/l in conditioning bath): 0.09 ppm

c1nc[nH]n1 [Compound I-4]
Yellow Stain ([3]; formula (I) 4 mmol): 0.00 | Yellow Stain ([3]; formula (I) 16 mmol): 0.01 | Concentration of HCHO ([4]; formula (I) 4 mmol): 0.15 ppm | Concentration of HCHO ([4]; formula (I) 16 mmol): 0.09 ppm

C=O [Formaldehyde, reference compound]
Yellow Stain [3, 5]: 0.00 | Concentration of HCHO [4, 5]: 0.5 ppm | HCHO Concentration ([1]; 5 mmol/l): 0.35 ppm | HCHO Concentration ([1]; 27 mmol/l): 1.81 ppm | Concentration of HCHO ([2]; 3 mmol/l in conditioning bath): 0.35 ppm | Concentration of HCHO ([2]; 13 mmol/l in conditioning bath): 0.89 ppm

c1cnn(CN2CCOCC2)c1 [Compound A-16]
HCHO Concentration ([1]; 5 mmol/l): 0.16 ppm

c1ncn(CN2CCN(Cn3cncn3)CC2)n1 [Compound A-23]
HCHO Concentration ([1]; 5 mmol/l): 0.10 ppm | Concentration of HCHO ([2]; 3 mmol/l in conditioning bath): 0.09 ppm

c1cnn(CN2CCN(Cn3cccn3)CC2)c1 [Compound A-22]
HCHO Concentration ([1]; 5 mmol/l): 0.09 ppm | Concentration of HCHO ([2]; 3 mmol/l in conditioning bath): 0.07 ppm

C1CNCCN1 [II-22]
Yellow Stain ([3]; formula (II) 2 mmol): 0.08 | Yellow Stain ([3]; formula (II) 4 mmol): 0.16 | Concentration of HCHO ([4]; formula (II) 2 mmol): 0.15 ppm | Concentration of HCHO ([4]; formula (II) 4 mmol): 0.10 ppm

c1ncn(CN2CCOCC2)n1 [Compound A-26]
HCHO Concentration ([1]; 5 mmol/l): 0.13 ppm
